Assay results published in patent US20050014137A1, “Lentivirus assay system including Vif protein activity” (priority 2003, published 2005).
For part of these data: At least one compound was matched to its structure with a doubt left. Some results were stated once for a whole list of compounds, not compound by compound.

What was measured:
HIV-1 = details: read-out: Literature EC50 (Table 1); range of EC50 values reported in the literature; NIH anti-HIV therapeutics database; cited from earlier work
HIV-1 NL4.3 = assay: PM1 cell-based HIV co-culture assay (HeLa CD4 LTR/lacZ indicator cells, β-Gal reporter); details: inhibitor at ≧10×EC90
Text: (§1) The modifications were as follows: PM1 cells were used in place of the MT-2 cells.
as §1

| SMILES | EC50 (HIV-1) [µM] | inhibition of the reporter signal (HIV-1 NL4.3) [%] |
| --- | --- | --- |
| O=C(O)C1=CC(=C(c2ccc(O)c(C(=O)O)c2)c2ccc(O)c(C(=O)O)c2)C=CC1=O [ATA, aurintricarboxylic acid] | 0.69 to 5 |  |
| O=C1Nc2ccc(Cl)cc2[C@@](C#CC2CC2)(C(F)(F)F)O1 [EFV, efavirenz] |  | > 99 |
| Cc1c(O)cccc1C(=O)N[C@@H](CSc1ccccc1)[C@H](O)CN1C[C@H]2CCCC[C@H]2C[C@H]1C(=O)NC(C)(C)C [NFV, nelfinavir] |  | > 99 |
